The target in test [1] is endogenous Max (mouse (endogenous in mouse ESCs)) (UniProt P28574). Kind of test: co-IP; immunoprecipitation of endogenous Max with specific antibody and protein G magnetic beads from micrococcal nuclease-treated nuclear extracts of stable ESC clones; overnight at 4°C; washed with digestion buffer with 0.1% NP-40; western blot; rabbit IgG as negative control.
Test [2] deals with biotin-tagged Myc (Bio-Myc) (UniProt P01106). Kind of test: co-IP; immunoprecipitation of exogenous tagged Myc with the corresponding anti-tag affinity beads from nuclear extracts of stable ESC clones; washed with digestion buffer with 0.1% NP-40; western blot for endogenous Max.
For the next test, the target named is V5-tagged Myc (V5-Myc) (UniProt P01106). Described as above.
Test [3] addresses FLAG-HA-tagged Myc (FLAG-HA-Myc) (UniProt P01106). The test is described as above.

Chains of the proteins cited; added tags and fusions are not shown.
UniProt P28574: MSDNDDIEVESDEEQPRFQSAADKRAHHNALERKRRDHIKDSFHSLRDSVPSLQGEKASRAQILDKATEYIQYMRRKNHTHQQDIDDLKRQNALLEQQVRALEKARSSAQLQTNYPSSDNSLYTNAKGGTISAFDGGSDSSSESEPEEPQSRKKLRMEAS
UniProt P01106: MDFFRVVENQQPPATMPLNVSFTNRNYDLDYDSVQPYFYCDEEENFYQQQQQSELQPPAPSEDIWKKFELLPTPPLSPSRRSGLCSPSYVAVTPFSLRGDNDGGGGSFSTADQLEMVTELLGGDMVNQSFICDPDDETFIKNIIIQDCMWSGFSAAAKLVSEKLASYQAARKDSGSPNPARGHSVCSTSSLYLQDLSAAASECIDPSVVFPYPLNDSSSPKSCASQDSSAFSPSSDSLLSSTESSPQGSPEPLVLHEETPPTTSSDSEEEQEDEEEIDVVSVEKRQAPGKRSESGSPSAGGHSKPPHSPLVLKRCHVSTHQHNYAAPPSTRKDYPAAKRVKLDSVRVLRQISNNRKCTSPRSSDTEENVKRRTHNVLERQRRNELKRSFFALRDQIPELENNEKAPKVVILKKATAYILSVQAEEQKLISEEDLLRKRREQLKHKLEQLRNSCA

Results are given in words; binding and its absence hold for the method and conditions named. Binding seen in cells or lysates may run through a third protein. Some results given as binding are weak or reduced against the parent protein; the word gives no strength.

“FLAG-HA-tagged Myc (FLAG-HA-Myc) (from UniProt P01106 1-454)”: the binding result in test [1] was “binds”.
As for “endogenous Max (from UniProt P28574 1-160)”, the binding result (in test [2]; with V5-tagged Myc (V5-Myc); in test [3]) was “binds” each time.
Turning to “biotin-tagged Myc (Bio-Myc) (from UniProt P01106 1-454)”, in test [1], the binding entry is given as “binds”.
As for “V5-tagged Myc (V5-Myc) (from UniProt P01106 1-454)”, the binding result in test [1] was “binds”.

Source of the values: publication PMC3931652.
